According to the supplement of paper PMC10331698:
± gives the standard deviation of the averaged measurements. Small differences around the control level are noise.

Key:
Assay in all cases: level (log10 ratio to DMSO vehicle control); higher = higher biomarker level / cell amount than vehicle control
[1] = compound: O=C(O)C(F)(F)OC(F)(F)C(F)(F)OC(F)(F)F [Perfluoro-3,6-dioxaheptanoic acid]; conditions: 2200 nM; in DMSO
Protocol: (§1)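 BioMAP Diversity Plus panel of 12 human primary cell co-culture systems (3C, 4H, LPS, SAg, BT, BF4T, BE3C, CASM3C, HDF3CGF, KF3CT, MyoF, Mphg). Compounds were added 1 h before stimulation and left for 24 h (MyoF 48 h; BT 72 h for soluble read-outs or 6 d for IgG). Biomarkers were read by ELISA, cytotoxicity by SRB, PBMC viability and proliferation by Alamar Blue. Each well value was divided by the mean of 8 DMSO control wells on the same plate and log10 transformed; duplicate blinded samples were tested at 4 concentrations.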

Perfluorodecanoic acid = compound: O=C(O)C(F)(F)C(F)(F)C(F)(F)C(F)(F)C(F)(F)C(F)(F)C(F)(F)C(F)(F)C(F)(F)F [Perfluorodecanoic acid]; conditions: in DMSO
Protocol: as §1

[2] = compound: O=C(O)C(F)(F)C(F)(F)C(F)(F)C(F)(F)C(F)(F)C(F)(F)C(F)(F)F [Ammonium perfluorooctanoate]; conditions: 2200 nM; in DMSO
Protocol: as §1

[3] = compound: CCOC(=O)CC(=O)C(F)(F)C(F)(F)F [Ethyl pentafluoropropionyl acetate]; conditions: 2200 nM; in DMSO
Protocol: as §1

[4] = compound: O=C(CC(=O)C(F)(F)C(F)(F)C(F)(F)F)c1cccs1 [(Perfluorobutyryl)-2-thenoylmethane]; conditions: 2200 nM; in DMSO
Protocol: as §1

[5] = compound: FC(F)(F)C(F)(F)C(F)(F)C(F)(F)C(F)(F)C(F)(F)C(F)(F)C(F)(F)CCS [2-(Perfluorooctyl)ethanthiol]; conditions: in DMSO
Protocol: as §1

Perfluorooctanoic acid = compound: O=C(O)C(F)(F)C(F)(F)C(F)(F)C(F)(F)C(F)(F)C(F)(F)C(F)(F)F [Perfluorooctanoic acid]; conditions: 2200 nM; in DMSO
Protocol: as §1

Perfluorononanoic acid = compound: O=C(O)C(F)(F)C(F)(F)C(F)(F)C(F)(F)C(F)(F)C(F)(F)C(F)(F)C(F)(F)F [Perfluorononanoic acid]; conditions: 2200 nM; in DMSO
Protocol: as §1

[6] = compound: OCC(F)(F)OC(F)(F)C(F)(F)OC(F)(F)C(F)(F)OC(F)(F)CO [1H,1H,11H,11H-Perfluorotetraethylene glycol]; conditions: 2200 nM; in DMSO
Protocol: as §1

[7] = compound: O=C(O)C(F)(F)OC(F)(F)C(F)(F)OC(F)(F)C(F)(F)OC(F)(F)C(F)(F)C(F)(F)C(F)(F)F [Perfluoro-3,6,9-trioxatridecanoic acid]; conditions: 2200 nM; in DMSO
Protocol: as §1

[8] = compound: OCC(F)(F)C(F)(F)C(F)(F)C(F)(F)C(F)(F)C(F)(F)C(F)(F)C(F)(F)CO [1H,1H,10H,10H-Perfluorodecane-1,10-diol]; conditions: 2200 nM; in DMSO
Protocol: as §1

[9] = compound: O=C(O)CCC(F)(C(F)(F)F)C(F)(F)F [4,4-bis(Trifluoromethyl)-4-fluoropropanoic acid]; conditions: 2200 nM; in DMSO
Protocol: as §1

Perfluorooctanamidine = compound: N=C(N)C(F)(F)C(F)(F)C(F)(F)C(F)(F)C(F)(F)C(F)(F)C(F)(F)F [Perfluorooctanamidine]; conditions: in DMSO
Protocol: as §1

[10] = compound: C=CC(=O)OCC(F)(F)C(F)(F)C(F)(F)C(F)(F)C(F)(F)C(F)(F)C(F)(F)C(F)F [1H,1H,9H-Perfluorononyl acrylate]; conditions: 2200 nM; in DMSO
Protocol: as §1

| Test System | level (log10) [1] | level (log10) (Perfluorodecanoic acid; 2200 nM) | level (log10) (Perfluorodecanoic acid; 6700 nM) | level (log10) (Perfluorodecanoic acid; 20000 nM) | level (log10) [2] | level (log10) [3] | level (log10) [4] | level (log10) ([5]; 740 nM) | level (log10) ([5]; 2200 nM) | level (log10) (Perfluorooctanoic acid) | level (log10) (Perfluorononanoic acid) | level (log10) [6] | level (log10) [7] | level (log10) [8] | level (log10) [9] | level (log10) (Perfluorooctanamidine; 2200 nM) | level (log10) (Perfluorooctanamidine; 6700 nM) | level (log10) (Perfluorooctanamidine; 20000 nM) | level (log10) (Perfluorooctanamidine; 60000 nM) | level (log10) [10] |
| --- | --- | --- | --- | --- | --- | --- | --- | --- | --- | --- | --- | --- | --- | --- | --- | --- | --- | --- | --- | --- |
| MyoF:CD106/VCAM-1 | 0.0015 ± 0.043 | -0.009 ± 0.011 | -0.019 ± 0.0071 | -0.084 ± 0.02 | -0.0045 ± 0.00071 | -0.002 ± 0.013 | -0.022 ± 0.03 | -0.004 ± 0.0042 | 0.0045 ± 0.025 | -0.004 ± 0.0014 | -0.012 ± 0.017 | 0.01 ± 0.0042 | 0.0065 ± 0.016 | 0.0095 ± 0.023 | -0.012 | 0.004 ± 0.0099 | 0.0115 ± 0.026 | -0.002 ± 0.018 | 0.011 | -0.001 ± 0.0028 |
| LPS:M-CSF | -0.0245 ± 0.043 | -0.0135 ± 0.021 | -0.0015 ± 0.015 | -0.0045 ± 0.018 | 0.014 ± 0.0071 | 0.026 ± 0.0099 | -0.041 ± 0.099 | -0.013 ± 0.031 | 0.008 ± 0.011 | 0.036 ± 0.041 | -0.029 ± 0.014 | 0.0155 ± 0.08 | 0.005 ± 0.024 | 0.0285 ± 0.012 | -0.0285 ± 0.039 | 0.0085 ± 0.012 | -0.0045 ± 0.0078 | -0.011 ± 0.03 | -0.068 | 0.0165 ± 0.016 |
| 4H:SRB | 0.007 ± 0.0071 | 0.004 ± 0.0057 | 0.003 ± 0.0099 | -0.0055 ± 0.00071 | 0.006 ± 0.0028 | 0.01 ± 0.021 | 0.001 ± 0.0042 | 0.0005 ± 0.026 | -0.004 ± 0.0085 | -0.0155 ± 0.0064 | 0.0025 ± 0.013 | 0.021 ± 0.0057 | -0.0045 ± 0.0021 | 0.002 ± 0.021 | -0.005 ± 0.017 | -0.011 ± 0.0099 | 0.0035 ± 0.0021 | -0.006 ± 0.0071 | -0.029 | -0.004 ± 0.02 |
| LPS:CD141/Thrombomodulin | -0.011 ± 0.0057 | -0.015 | 0.0035 ± 0.00071 | 0.002 ± 0.0057 | -0.0005 ± 0.0021 | 0.047 ± 0.027 | 0.0295 ± 0.0064 | -0.023 ± 0.033 | -0.022 ± 0.014 | 0.06 ± 0.067 | -0.0225 ± 0.013 | 0.025 ± 0.11 | -0.002 ± 0.0057 | -0.001 ± 0.04 | 0.047 ± 0.0099 | -0.0105 ± 0.012 | -0.0235 ± 0.0078 | -0.0325 ± 0.022 | -0.01 | -0.0205 ± 0.005 |
